Assay results published in the supplement of paper PMC10849652.
The other results are listed elsewhere or left out.

Chains of the proteins cited; added tags and fusions are not shown. Lines headed by an entry give the natural chain unless they say otherwise; changes in a name come on top.
UniProt Q9H0E9, whole entry, looked up: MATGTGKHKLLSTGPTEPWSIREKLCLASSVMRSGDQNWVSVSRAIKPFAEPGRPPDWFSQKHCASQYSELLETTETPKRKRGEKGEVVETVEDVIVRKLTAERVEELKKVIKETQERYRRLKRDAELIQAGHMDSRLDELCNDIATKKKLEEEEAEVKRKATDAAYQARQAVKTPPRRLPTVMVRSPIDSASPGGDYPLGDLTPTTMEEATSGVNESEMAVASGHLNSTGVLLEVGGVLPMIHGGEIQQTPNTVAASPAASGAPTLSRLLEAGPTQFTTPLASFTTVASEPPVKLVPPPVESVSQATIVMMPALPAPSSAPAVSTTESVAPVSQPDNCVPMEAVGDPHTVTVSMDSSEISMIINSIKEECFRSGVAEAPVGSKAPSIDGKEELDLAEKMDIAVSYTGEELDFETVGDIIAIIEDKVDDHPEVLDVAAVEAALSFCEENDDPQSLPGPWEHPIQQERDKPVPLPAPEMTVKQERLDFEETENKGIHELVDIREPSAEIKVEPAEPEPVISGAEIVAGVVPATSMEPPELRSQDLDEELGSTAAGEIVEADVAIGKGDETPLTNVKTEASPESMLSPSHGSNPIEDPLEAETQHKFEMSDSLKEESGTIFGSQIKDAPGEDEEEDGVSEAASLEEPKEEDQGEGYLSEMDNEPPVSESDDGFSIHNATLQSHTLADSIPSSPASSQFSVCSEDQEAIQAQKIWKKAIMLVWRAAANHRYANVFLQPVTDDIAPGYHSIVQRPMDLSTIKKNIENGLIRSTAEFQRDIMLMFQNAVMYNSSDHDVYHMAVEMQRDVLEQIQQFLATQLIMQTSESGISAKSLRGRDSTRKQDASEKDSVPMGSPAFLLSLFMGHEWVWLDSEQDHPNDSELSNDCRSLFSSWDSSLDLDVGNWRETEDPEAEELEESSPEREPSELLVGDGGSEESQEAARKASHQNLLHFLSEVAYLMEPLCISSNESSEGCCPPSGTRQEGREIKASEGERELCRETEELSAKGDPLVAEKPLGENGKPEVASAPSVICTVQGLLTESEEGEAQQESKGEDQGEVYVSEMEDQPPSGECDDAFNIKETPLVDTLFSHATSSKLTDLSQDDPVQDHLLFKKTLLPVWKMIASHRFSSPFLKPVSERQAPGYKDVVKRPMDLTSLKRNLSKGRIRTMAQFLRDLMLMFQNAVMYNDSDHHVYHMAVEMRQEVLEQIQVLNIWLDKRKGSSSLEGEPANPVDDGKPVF
UniProt Q8TDN6: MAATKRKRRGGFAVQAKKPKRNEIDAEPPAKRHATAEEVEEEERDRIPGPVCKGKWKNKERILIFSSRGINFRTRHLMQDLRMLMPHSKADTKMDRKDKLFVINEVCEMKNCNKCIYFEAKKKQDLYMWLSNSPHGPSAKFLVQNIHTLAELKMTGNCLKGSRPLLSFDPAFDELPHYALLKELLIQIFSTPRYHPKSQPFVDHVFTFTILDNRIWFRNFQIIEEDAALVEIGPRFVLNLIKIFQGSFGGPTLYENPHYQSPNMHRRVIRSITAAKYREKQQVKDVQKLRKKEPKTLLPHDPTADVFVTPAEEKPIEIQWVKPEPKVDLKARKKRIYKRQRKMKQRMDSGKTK
UniProt Q86WA6: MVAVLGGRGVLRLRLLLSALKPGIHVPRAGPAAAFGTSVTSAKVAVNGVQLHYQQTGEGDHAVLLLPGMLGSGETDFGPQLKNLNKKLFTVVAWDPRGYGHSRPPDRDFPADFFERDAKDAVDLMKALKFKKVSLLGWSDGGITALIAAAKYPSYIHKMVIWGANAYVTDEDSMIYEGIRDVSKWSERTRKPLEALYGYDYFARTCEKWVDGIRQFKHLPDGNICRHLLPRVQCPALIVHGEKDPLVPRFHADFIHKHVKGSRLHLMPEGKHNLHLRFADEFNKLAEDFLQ
UniProt O15155: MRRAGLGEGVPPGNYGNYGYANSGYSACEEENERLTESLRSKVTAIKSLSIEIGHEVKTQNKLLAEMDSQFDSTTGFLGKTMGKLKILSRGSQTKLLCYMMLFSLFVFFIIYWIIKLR
UniProt Q96GS4: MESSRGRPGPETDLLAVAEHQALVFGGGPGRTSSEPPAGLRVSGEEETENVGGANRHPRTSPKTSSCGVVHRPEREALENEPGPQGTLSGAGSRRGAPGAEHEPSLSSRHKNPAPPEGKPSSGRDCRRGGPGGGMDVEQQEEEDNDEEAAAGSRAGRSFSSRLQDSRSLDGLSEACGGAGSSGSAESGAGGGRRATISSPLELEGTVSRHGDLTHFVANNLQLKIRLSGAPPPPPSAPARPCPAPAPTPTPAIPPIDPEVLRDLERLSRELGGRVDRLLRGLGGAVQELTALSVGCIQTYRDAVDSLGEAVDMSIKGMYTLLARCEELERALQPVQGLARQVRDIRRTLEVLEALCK
UniProt P56945: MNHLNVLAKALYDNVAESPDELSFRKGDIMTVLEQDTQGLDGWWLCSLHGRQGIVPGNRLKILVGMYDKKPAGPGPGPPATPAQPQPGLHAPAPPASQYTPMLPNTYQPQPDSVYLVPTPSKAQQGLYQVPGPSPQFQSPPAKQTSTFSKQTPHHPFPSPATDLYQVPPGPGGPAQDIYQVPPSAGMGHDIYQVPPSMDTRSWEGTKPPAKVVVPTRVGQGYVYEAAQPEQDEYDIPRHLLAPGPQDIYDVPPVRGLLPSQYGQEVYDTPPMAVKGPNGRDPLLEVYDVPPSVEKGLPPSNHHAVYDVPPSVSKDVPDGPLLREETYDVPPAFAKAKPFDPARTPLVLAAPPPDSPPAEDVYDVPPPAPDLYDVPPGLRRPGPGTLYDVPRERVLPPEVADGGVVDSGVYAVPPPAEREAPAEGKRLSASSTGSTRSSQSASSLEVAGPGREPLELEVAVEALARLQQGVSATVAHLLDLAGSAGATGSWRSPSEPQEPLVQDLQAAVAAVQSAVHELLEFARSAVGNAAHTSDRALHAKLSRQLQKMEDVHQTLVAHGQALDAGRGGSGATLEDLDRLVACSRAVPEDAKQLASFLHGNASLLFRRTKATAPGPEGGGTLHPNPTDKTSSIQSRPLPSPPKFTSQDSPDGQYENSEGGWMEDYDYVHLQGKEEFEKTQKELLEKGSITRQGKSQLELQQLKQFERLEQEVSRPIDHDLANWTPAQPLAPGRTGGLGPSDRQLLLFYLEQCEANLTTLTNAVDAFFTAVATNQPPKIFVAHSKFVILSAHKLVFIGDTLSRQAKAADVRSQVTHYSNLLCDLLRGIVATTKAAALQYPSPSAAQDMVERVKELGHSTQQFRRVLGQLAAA
UniProt Q99728: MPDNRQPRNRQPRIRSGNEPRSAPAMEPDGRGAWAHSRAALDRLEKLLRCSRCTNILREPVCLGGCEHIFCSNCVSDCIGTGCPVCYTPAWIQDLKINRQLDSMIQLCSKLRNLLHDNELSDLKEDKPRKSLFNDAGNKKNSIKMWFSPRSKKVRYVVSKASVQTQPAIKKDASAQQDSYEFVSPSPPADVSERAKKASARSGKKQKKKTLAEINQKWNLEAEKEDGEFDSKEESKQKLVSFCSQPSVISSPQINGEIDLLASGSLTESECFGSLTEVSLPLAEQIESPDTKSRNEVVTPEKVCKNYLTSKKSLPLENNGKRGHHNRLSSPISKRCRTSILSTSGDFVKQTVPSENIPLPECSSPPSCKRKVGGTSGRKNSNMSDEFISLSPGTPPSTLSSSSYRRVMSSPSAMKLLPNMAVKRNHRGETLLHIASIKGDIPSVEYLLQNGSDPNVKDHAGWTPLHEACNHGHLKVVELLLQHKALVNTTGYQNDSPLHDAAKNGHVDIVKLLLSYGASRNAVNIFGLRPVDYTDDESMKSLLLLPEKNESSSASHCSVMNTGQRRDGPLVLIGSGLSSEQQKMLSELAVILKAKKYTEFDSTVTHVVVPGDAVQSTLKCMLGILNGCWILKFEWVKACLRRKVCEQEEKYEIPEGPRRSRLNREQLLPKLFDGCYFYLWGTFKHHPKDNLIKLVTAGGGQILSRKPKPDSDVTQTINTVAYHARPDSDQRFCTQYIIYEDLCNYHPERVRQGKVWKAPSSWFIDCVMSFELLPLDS
UniProt O14981: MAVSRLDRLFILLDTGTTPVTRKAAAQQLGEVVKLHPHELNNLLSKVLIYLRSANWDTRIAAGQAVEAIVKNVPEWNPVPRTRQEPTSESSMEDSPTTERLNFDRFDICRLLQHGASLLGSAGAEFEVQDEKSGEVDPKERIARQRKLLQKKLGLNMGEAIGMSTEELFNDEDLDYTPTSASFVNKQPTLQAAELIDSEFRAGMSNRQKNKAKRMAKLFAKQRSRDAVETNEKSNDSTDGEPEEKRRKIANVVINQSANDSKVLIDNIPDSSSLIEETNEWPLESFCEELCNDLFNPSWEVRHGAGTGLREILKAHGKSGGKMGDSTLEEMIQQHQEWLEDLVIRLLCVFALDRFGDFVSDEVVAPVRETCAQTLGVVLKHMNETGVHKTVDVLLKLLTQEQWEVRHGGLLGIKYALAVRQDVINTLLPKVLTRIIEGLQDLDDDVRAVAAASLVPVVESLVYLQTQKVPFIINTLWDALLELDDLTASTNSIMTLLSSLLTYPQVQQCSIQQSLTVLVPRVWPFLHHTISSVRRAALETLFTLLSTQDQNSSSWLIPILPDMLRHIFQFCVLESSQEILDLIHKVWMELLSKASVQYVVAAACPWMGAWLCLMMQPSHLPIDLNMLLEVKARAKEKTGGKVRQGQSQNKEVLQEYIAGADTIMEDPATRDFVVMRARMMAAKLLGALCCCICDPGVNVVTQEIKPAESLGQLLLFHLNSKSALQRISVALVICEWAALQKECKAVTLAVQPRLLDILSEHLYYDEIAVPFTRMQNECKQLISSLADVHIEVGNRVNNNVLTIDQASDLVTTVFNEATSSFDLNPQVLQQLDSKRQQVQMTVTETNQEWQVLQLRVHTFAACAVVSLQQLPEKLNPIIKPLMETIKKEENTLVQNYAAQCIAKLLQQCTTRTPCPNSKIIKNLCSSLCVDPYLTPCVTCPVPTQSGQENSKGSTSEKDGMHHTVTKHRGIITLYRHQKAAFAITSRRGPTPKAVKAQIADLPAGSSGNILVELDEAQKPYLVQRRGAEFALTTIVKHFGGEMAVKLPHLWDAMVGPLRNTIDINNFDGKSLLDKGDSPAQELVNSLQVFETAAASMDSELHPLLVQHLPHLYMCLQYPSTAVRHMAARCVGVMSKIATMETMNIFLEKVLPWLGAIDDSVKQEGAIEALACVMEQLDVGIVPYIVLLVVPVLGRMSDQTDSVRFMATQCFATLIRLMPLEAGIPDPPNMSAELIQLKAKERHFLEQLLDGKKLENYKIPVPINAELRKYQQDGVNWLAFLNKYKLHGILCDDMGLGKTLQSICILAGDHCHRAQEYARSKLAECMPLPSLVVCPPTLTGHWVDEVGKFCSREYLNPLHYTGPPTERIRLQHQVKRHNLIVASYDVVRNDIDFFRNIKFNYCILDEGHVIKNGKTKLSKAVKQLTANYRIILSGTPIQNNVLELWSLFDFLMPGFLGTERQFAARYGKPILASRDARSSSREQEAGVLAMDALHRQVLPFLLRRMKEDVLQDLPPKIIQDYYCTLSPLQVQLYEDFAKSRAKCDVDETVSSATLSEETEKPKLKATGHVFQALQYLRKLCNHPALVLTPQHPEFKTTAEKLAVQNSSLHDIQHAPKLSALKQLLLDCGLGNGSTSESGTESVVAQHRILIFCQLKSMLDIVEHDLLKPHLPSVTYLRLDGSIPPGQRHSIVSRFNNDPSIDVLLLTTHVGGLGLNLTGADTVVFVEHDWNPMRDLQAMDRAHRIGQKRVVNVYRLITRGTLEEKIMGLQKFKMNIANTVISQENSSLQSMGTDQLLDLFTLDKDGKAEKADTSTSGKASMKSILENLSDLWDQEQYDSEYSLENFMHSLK
UniProt O75934: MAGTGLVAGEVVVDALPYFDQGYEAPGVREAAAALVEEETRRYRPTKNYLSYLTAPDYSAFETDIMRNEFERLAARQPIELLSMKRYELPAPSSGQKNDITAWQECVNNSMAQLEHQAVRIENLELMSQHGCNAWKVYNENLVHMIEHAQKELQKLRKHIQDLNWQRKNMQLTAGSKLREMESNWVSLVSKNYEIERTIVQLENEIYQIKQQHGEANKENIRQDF
UniProt P21953: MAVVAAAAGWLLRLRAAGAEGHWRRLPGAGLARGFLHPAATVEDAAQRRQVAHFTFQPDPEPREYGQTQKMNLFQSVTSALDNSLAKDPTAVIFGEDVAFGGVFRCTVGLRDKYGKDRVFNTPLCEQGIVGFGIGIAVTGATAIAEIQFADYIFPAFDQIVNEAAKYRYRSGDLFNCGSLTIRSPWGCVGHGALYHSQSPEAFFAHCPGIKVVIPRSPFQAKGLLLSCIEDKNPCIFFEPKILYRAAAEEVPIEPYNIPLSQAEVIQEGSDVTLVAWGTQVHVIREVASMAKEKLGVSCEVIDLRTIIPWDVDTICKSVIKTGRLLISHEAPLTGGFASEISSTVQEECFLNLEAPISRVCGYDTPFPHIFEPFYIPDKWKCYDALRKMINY

What follows are targets tested with CC(=O)c1cnc2ccc(-c3cc(Cl)c(O)c(Cl)c3)nc2c1N[C@H]1CC[C@H](CN(C)C)CC1 (assay: log2 fold change, soluble protein after heating vs DMSO (PISA); higher = thermal stabilisation; K562 lysate, 10 uM; active = over 0.2 and 3.5 SD of the protein, either way, in both replicates (recomputed)).
How it was run: (§1)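 The values are log-two fold changes in thermal stability compared with solvent controls and come from duplicates. They were obtained by TMTpro 16plex LC-MS/MS, with channel sums equalised, on the supernatant after 21,000xg for 90 min. That supernatant came from crude K562 extract at 1 mg/mL protein treated with 10 μM compound for 30 min, heated for 3 min across 48°C-58°C, pooled and brought to 0.5% NP-40 at 4°C.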

| Target | log2 fold change |
| --- | --- |
| BRD8 isoform 2 (UniProt Q9H0E9) | inactive: 0.015 |
| BAIAP2 (UniProt Q9UQB8) | inactive: 0.005 |
| BAG6 isoform 3 (UniProt P46379) | inactive: 0.003 |
| BPTF (UniProt Q12830) | inactive: -0.016 |
| BAG1 (UniProt Q99933) | inactive: 0 |
| BCL7B (UniProt Q9BQE9) | inactive: -0.044 |
| BCLAF1 (UniProt Q9NYF8) | inactive: -0.021 |
| BLOC1S5 (UniProt Q8TDH9) | inactive: -0.008 |
| BTN2A1 (UniProt Q7KYR7) | inactive: -0.148 |
| BAG5 isoform 2 (UniProt Q9UL15) | inactive: -0.014 |
| BCL2L2 isoform 2 (UniProt Q92843) | inactive: -0.023 |
| BRCA1 isoform 7 (UniProt P38398) | inactive: -0.019 |
| BRIX1 (UniProt Q8TDN6) | inactive: 0.006 |
| BCL7C isoform 2 (UniProt Q8WUZ0) | inactive: 0.048 |
| BTBD6 (UniProt Q96KE9) | inactive: -0.208 |
| BCOR (UniProt Q6W2J9) | inactive: -0.078 |
| BORCS5 (UniProt Q969J3) | inactive: -0.02 |

| Target | log2 fold change |
| --- | --- |
| BPHL (UniProt Q86WA6) | inactive: -0.016 |
| BET1 (UniProt O15155) | inactive: 0.041 |
| BNIP2 (UniProt J3KN59) | inactive: 0.008 |
| BORCS6 (UniProt Q96GS4) | inactive: 0.008 |
| BIRC5 (UniProt O15392) | inactive: -0.041 |
| BCAR1 isoform 6 (UniProt P56945) | inactive: 0.02 |
| BAG2 (UniProt O95816) | inactive: 0.003 |
| BARD1 (UniProt Q99728) | inactive: 0.129 |
| BTAF1 (UniProt O14981) | inactive: -0.003 |
| BSG (UniProt P35613) | inactive: 0.055 |
| BCAS2 (UniProt O75934) | inactive: 0.02 |
| BCKDHB (UniProt P21953) | inactive: 0.025 |
| BTF3L4 (UniProt Q96K17) | inactive: 0.027 |
| BID isoform 2 (UniProt P55957) | inactive: -0.006 |
| BCL2L13 (UniProt Q9BXK5) | inactive: -0.028 |
| BCKDK (UniProt O14874) | inactive: 0.049 |
| BLOC1S3 (UniProt Q6QNY0) | inactive: -0.004 |

What follows are targets tested with CC(C)(C)Cn1c(N)nc2ccc(-c3[nH]c(C(C)(C)C)nc3-c3ccc(F)cc3)nc21 [ralimetinib] in the same assay as above.
How it was run: as §1

| Target | log2 fold change |
| --- | --- |
| BRD8 isoform 2 (UniProt Q9H0E9) | inactive: -0.02 |
| BAIAP2 (UniProt Q9UQB8) | inactive: -0.054 |
| BAG6 isoform 3 (UniProt P46379) | inactive: 0.026 |
| BPTF (UniProt Q12830) | inactive: -0.017 |
| BAG1 (UniProt Q99933) | inactive: 0.012 |
| BCL7B (UniProt Q9BQE9) | inactive: 0.039 |
| BCLAF1 (UniProt Q9NYF8) | inactive: -0.045 |
| BLOC1S5 (UniProt Q8TDH9) | inactive: -0.02 |
| BTN2A1 (UniProt Q7KYR7) | inactive: -0.024 |
| BAG5 isoform 2 (UniProt Q9UL15) | inactive: 0.033 |
| BCL2L2 isoform 2 (UniProt Q92843) | inactive: -0.017 |
| BRCA1 isoform 7 (UniProt P38398) | inactive: -0.014 |
| BRIX1 (UniProt Q8TDN6) | inactive: 0.013 |
| BCL7C isoform 2 (UniProt Q8WUZ0) | inactive: 0.04 |
| BTBD6 (UniProt Q96KE9) | inactive: -0.143 |
| BCOR (UniProt Q6W2J9) | inactive: 0.032 |
| BORCS5 (UniProt Q969J3) | inactive: -0.033 |

| Target | log2 fold change |
| --- | --- |
| BPHL (UniProt Q86WA6) | inactive: 0.047 |
| BET1 (UniProt O15155) | inactive: -0.085 |
| BNIP2 (UniProt J3KN59) | inactive: 0.046 |
| BORCS6 (UniProt Q96GS4) | inactive: -0.005 |
| BIRC5 (UniProt O15392) | inactive: 0 |
| BCAR1 isoform 6 (UniProt P56945) | inactive: -0.009 |
| BAG2 (UniProt O95816) | inactive: 0.015 |
| BARD1 (UniProt Q99728) | inactive: -0.021 |
| BTAF1 (UniProt O14981) | inactive: 0.01 |
| BSG (UniProt P35613) | inactive: 0.02 |
| BCAS2 (UniProt O75934) | inactive: 0.052 |
| BCKDHB (UniProt P21953) | inactive: 0.003 |
| BTF3L4 (UniProt Q96K17) | inactive: 0.04 |
| BID isoform 2 (UniProt P55957) | inactive: 0.008 |
| BCL2L13 (UniProt Q9BXK5) | inactive: -0.011 |
| BCKDK (UniProt O14874) | inactive: 0.137 |
| BLOC1S3 (UniProt Q6QNY0) | inactive: -0.006 |
